Laboratory results from article PMC10780347.

What was measured:
[1] = biological target: T1, phogrin (endogenous, mouse) (mouse (endogenous in mouse islets and MIN6)) (UniProt P80560); assay: co-IP; MIN6 cells cultured at various densities (50–100%), 1.5 mg extract precipitated with anti-phogrin antibody, blot for IR
T1 sequence: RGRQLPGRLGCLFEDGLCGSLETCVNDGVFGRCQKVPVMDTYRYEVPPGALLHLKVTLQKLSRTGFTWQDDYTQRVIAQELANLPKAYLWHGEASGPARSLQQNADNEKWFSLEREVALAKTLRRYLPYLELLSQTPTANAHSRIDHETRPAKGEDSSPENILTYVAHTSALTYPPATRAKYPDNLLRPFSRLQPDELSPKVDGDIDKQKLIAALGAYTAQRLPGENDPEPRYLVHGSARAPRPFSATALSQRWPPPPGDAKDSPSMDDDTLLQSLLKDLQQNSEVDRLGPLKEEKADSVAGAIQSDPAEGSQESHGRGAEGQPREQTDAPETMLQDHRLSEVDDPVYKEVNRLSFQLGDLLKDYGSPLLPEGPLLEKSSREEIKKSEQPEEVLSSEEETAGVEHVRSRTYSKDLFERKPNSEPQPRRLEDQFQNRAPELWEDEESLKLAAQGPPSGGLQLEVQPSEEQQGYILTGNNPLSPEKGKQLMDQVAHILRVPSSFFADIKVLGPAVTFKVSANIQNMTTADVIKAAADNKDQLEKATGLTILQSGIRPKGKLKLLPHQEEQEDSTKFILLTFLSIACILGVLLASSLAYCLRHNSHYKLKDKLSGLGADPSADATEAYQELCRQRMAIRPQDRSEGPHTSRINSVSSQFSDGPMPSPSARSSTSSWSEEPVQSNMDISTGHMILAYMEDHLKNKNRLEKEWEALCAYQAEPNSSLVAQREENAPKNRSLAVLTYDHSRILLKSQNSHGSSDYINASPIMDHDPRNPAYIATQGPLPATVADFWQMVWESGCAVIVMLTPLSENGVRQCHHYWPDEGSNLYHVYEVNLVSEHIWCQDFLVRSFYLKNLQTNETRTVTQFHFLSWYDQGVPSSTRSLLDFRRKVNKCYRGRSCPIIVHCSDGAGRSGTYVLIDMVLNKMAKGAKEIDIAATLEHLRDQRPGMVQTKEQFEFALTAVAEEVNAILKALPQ

[2] = biological target: T2, phogrin–EGFP (UniProt Q63475); assay: co-IP; MIN6 cells stably expressing phogrin–EGFP, at 90% (high) or 50% (low) density, extract precipitated with anti-GFP monoclonal antibody, blot for IR
T2 sequence: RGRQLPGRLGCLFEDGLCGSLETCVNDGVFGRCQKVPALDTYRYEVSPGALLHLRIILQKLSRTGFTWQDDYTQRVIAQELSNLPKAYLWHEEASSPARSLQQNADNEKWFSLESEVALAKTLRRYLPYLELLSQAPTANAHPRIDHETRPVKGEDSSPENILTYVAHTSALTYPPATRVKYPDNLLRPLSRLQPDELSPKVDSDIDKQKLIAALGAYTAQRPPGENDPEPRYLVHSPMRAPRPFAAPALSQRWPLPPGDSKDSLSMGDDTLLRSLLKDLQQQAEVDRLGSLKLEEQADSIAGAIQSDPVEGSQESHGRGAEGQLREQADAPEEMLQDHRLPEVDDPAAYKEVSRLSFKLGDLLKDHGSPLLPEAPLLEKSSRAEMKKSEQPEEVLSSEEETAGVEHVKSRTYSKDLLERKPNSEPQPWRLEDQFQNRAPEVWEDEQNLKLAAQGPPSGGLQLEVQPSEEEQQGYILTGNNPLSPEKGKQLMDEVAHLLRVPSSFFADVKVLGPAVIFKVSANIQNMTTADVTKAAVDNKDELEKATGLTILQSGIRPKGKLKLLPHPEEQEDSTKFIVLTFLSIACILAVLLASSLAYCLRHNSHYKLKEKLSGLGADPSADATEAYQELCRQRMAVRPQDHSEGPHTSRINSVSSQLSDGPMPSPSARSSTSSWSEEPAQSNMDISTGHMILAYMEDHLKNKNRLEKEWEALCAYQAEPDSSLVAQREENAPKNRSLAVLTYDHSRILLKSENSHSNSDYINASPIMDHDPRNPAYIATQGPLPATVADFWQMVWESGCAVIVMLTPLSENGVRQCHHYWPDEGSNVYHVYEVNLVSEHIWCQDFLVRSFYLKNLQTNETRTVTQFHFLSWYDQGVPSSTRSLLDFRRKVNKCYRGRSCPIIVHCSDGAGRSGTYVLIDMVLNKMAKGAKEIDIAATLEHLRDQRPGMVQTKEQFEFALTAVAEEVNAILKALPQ

[3] = biological target: T1, phogrin (endogenous, mouse) (mouse (endogenous in mouse islets and MIN6)); assay: co-IP; islets of HFD-fed wild-type mice, lysis buffer A (1% Nonidet P-40, 150 mM NaCl), 0.5 mg extract precipitated with anti-phogrin rabbit antibody, blot for IRβ
[4] = biological target: T1, phogrin (endogenous, mouse) (mouse (endogenous in mouse islets and MIN6)); assay: co-IP; islets of wild-type mice on the normal diet (NFD), lysis buffer A, 0.5 mg extract precipitated with anti-phogrin rabbit antibody, blot for IRβ
[5] = biological target: T3, phogrin–GST (UniProt Q63475); assay: pull-down; MIN6 cells stably expressing phogrin–GST, at 90% (high) or 50% (low) density, extract pulled down with glutathione sepharose, blot for IR
T3 sequence: T2 sequence

insulin receptor (endogenous, mouse)
binding [1]: binds | binding [2]: binds | binding [3]: binds | binding [4]: no binding (only islets of mice on the normal diet) | binding [5]: binds

These are yes or no findings as the source states them, for the method shown. Binding seen in cells or lysates may run through a third protein. For some assays here: Binding calls can cover weak binding; strength is not graded here. For some assays here: Tags and fused reporters may be left off the sequences shown.
